Measurements taken from PubChem BioAssay AID504775 (Broad Institute, 2011).
Screen size: about 320,000 compounds; about 310 (0.097%) were called active. The inconclusive results got no clear call from the source; some entries with a clear call stand among them for comparison.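 The calls were made as follows: active = mean replicate activation of at least 60% and every replicate at or above 60%; inconclusive = mean or all-replicate condition met, but not both; inactive = mean below 60% and not all replicates reaching 60%.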

Assay: enhancers of HDL lipid transfer via mSR-BI – ldlA[mSR-BI] CHO cells, DiI fluorescence, primary screen (AID 504775);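 also: 0% = median plate neutral-control signal and 100% = twice that signal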
Conditions: DiI-HDL uptake fluorescence, 3 h, at 12.5 µM, active compounds read high, 100 = double the neutral-control signal
Procedure, shortened: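 Test system: SR-BI-overexpressing, LDLR-lacking CHO cells; Also added: labelled HDL, 10 µg/mL; Measured by: bottom-read cell fluorescence after medium removal, ex 550/em 595 nm; Timing: 3 h uptake period with compound, 37 °C; Buffer or medium: F12, 0.5% BSA, 25 mM HEPES; Doses: single compound concentration, delivered by pin transfer.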

SMILES	activation
Cc1ccc(-c2nnn3c2nc(NCCc2ccc(S(N)(=O)=O)cc2)c2ccccc23)cc1	active: 87.6%
C=CCN1C(=O)C(Cc2ccccc2)S/C1=N/N=C/c1cccs1 (stereo unspecified)	inactive: -21.2%
O=C(/C=C\NCC(=O)c1ccccc1)c1ccccc1	inconclusive: 150%
O=C1c2oc3ccccc3c(=O)c2C(c2cccc(F)c2)N1CCCO (stereo unspecified)	inconclusive: 60.3%
O=C(COC(=O)COc1ccccc1)NCCC1=CCCCC1	active: 73.3%
CC(Cc1ccccc1)NC(=S)CN1CCCC1=S (stereo unspecified)	inactive: 8.13%
Cc1nn2c(N3CCN(C)CC3)cc(C(C)(C)C)nc2c1-c1ccccc1	inactive: -33.3%
C=CCOc1ccc2c(c1)CCC1C2CCC2(C)C(O)C(O)CC12 (stereo unspecified)	inconclusive: 136%
COCCNC(=O)C(c1ccc(C)cc1)N(C(=O)CCC(=O)Nc1ccccn1)c1ccc(F)cc1 (stereo unspecified)	inconclusive: 152%
COc1ccc(NC(=O)CN(c2ccc(OC)c(Cl)c2)S(=O)(=O)c2ccccc2)cc1	inactive: -2.19%
COc1ccc(Nc2nc(N(C)c3ccccc3)nc(N)c2[N+](=O)[O-])cc1	active: 138%
CC1CCN(CC(O)COCCC23CC4CC(CC(C4)C2)C3)CC1 (stereo unspecified)	inactive: 8.45%
C=CCn1c(C(CC)CC(C)(C)O)n[nH]c1=S (stereo unspecified)	inconclusive: 103%
Cc1nc(-c2ccc(S(=O)(=O)Oc3ccccc3Cl)s2)cs1	inconclusive: 87.2%
CCOC(=O)C1(Cc2cccc(OC)c2)CCN(C(C)CC(C)(C)O)CC1 (stereo unspecified)	inconclusive: 169%
Cc1nc2ccccc2n1S(=O)(=O)c1ccc(Br)cc1	active: 65.1%
O=C(Cn1cnc2ccccc2c1=O)c1ccc(OC(F)F)cc1	inactive: -6.49%
COc1cc(S(=O)(=O)N2CCN(C(=O)C3CC3)CC2)ccc1NC(C)=O	active: 60.7%
CCCCC(=O)NC(=S)Nc1cccc(NC(=O)CC)c1	inconclusive: 119%
Cc1ccc(-c2csc(=Nc3cccnc3)n2CCCN2CCCC2=O)cc1C	active: 74.3%
COc1ccc(-c2nnc(SC(C)C(=O)Nc3nccs3)n2Cc2ccccc2)cc1OC (stereo unspecified)	inconclusive: 77.5%

SMILES	activation
S=C(NCc1ccccc1)N1CCN(c2ccccc2)CC1	active: 77.8%
CCC(CC)C(=O)Nc1cc(C(=O)OC)ccc1C(=O)OC	active: 66.6%
O=C(COC(=O)COc1ccccc1)Nc1ccc(Br)cc1F	active: 63.5%
O=S1(=O)c2ccc(Br)cc2OC(COCc2ccccc2)CN1Cc1ccccc1 (stereo unspecified)	inconclusive: 422%
O=C(CCCOc1ccc(Cl)cc1Cl)N/N=C/c1cccc([N+](=O)[O-])c1	active: 330%
COC(=O)C1CN(C(=O)C(C)Oc2ccccc2Cl)c2ccccc2O1 (stereo unspecified)	inconclusive: 356%
COc1ccc2nc(N3CCN(C(=O)C4COc5ccccc5O4)CC3)sc2c1 (stereo unspecified)	inactive: -12.5%
COc1ccc(N(CC(=O)NCc2ccco2)S(C)(=O)=O)cc1OC	inconclusive: 110%
CCOC(=O)CNC(=O)C1COc2ccccc2O1 (stereo unspecified)	inconclusive: 240%
Nc1cc2cccnc2cc1Cl	inconclusive: 134%
COc1c(/C=N/NC(=O)c2ccncc2)c(CCN(C)C(C)=O)cc2c1OCO2	active: 145%
Cc1cccc(NC(=O)CN2CCc3cc4c(cc3C2)OCCCO4)c1	active: 222%
O=C(CN(Cc1ccc(Cl)cc1)C(=O)CNS(=O)(=O)c1ccccc1)NCC1CCCO1 (stereo unspecified)	inconclusive: 213%
CCN1CCN(S(=O)(=O)CC2(C)C3CCC2(C)C(=O)C3Br)CC1 (stereo unspecified)	inconclusive: 234%
COc1ccc(Cc2nc3ccc(C(=O)N4CCOCC4)cc3o2)cc1	inactive: 8.97%
CCOC(=O)c1ccc(NC(=O)CCc2nc(-c3ccc(C)cc3)no2)cc1	inconclusive: 255%
CCc1nnc(NC(=O)CCC(=O)NCc2ccccc2Cl)s1	inconclusive: 75.5%
Clc1ccc(-n2nnnc2Sc2ncnc3sccc23)cc1	inactive: 23.7%
O=C(Nc1ccc(N2CCN(Cc3ccccc3F)CC2)cc1)c1ccc([N+](=O)[O-])o1	inactive: -19.9%
Cc1cc(C)nc(SCCN2CCCCC2)n1	inconclusive: 425%
COc1cc(NC(=O)c2ccc(C)cc2)ccc1NC(=O)c1cc2ccccc2o1	inactive: -57.2%

5 entries picked at random from the list so far:
SMILES	activation
O=C(CCCOc1ccc(Cl)cc1Cl)N/N=C/c1cccc([N+](=O)[O-])c1	active: 330%
Clc1ccc(-n2nnnc2Sc2ncnc3sccc23)cc1	inactive: 23.7%
S=C(NCc1ccccc1)N1CCN(c2ccccc2)CC1	active: 77.8%
O=S1(=O)c2ccc(Br)cc2OC(COCc2ccccc2)CN1Cc1ccccc1 (stereo unspecified)	inconclusive: 422%
Nc1cc2cccnc2cc1Cl	inconclusive: 134%

The list goes on:

SMILES	activation
Cc1c(Cl)cccc1N1C(=O)CC(N(O)c2ccccc2)C1=O (stereo unspecified)	active: 218%
O=C(/C=C/c1ccccc1)NC(=S)Nc1ccc(N2CCOCC2)cc1	inconclusive: 90.9%
Cc1cc(C)cc(OCC(=O)NN2Cc3ccccc3C2=N)c1	inactive: 16.5%
O=C1CC(N(O)c2ccccc2)C(=O)N1Cc1ccccc1 (stereo unspecified)	inconclusive: 233%
CC(C)c1ccc(NC(=O)C2CC3CCC2C3)cc1 (stereo unspecified)	inconclusive: 220%
CC(C)c1ccc(-c2cc(C(=O)N3CCOCC3)c3cc(Br)ccc3n2)cc1	inconclusive: 160%
Cc1cccc(N2CCN(C(=O)C(C)n3nc(C)n4c(cc5occc54)c3=O)CC2)c1C (stereo unspecified)	inconclusive: 280%
O=C(COC(=O)c1ccco1)NC1CCCC1	inactive: 12.2%
CC(C)(C)c1ccc(S(=O)(=O)NCC2CCCO2)cc1 (stereo unspecified)	inconclusive: 68.1%
O=C(CC1C[C@H](C(=O)N2CCOCC2)[C@@]2(CCC3CCCC3)c3[nH]c4ccccc4c3CCN2C1=O)NCc1cccc(C(F)(F)F)c1 (stereo partly specified)	active: 107%
O=C1Cc2ccccc2Sc2ccc(Cl)cc21	inconclusive: 301%
Cc1csc(NC(=O)CSc2ncc(-c3ccccc3)[nH]2)n1	inactive: 10.1%
Nc1ccc2c(c1)CC(=O)c1ccccc1S2	inactive: 15.4%
O=C(Nc1ccc(Cl)c(Cl)c1)N1CCSCC1	active: 320%
CC(=O)Nc1ccc(OCC(=O)NCc2ccc3c(c2)OCO3)cc1	inconclusive: 198%
CCOC(=O)C(C)Oc1cc(Cl)c(C=O)cc1OC (stereo unspecified)	inconclusive: 66.1%
CCSc1nc2ccc(C)cc2cc1C#N	inactive: -31.8%
COc1ccc(-c2csc(Nc3ccc(S(N)(=O)=O)cc3)n2)cc1	active: 108%
CN(C)CCCNC(=S)N(CCO)Cc1cc2cc3c(cc2[nH]c1=O)OCO3	inconclusive: 83.7%
